Article PMC8270969
Results are given in words; binding and its absence hold for the method and conditions named. Binding seen in cells or lysates may run through a third protein.

The chains behind the UniProt entries cited, without tags or fusion partners. Where a name states a change or a piece, a line headed by the entry shows the natural chain unless it says otherwise. Residues count along the entry.
UniProt Q16610: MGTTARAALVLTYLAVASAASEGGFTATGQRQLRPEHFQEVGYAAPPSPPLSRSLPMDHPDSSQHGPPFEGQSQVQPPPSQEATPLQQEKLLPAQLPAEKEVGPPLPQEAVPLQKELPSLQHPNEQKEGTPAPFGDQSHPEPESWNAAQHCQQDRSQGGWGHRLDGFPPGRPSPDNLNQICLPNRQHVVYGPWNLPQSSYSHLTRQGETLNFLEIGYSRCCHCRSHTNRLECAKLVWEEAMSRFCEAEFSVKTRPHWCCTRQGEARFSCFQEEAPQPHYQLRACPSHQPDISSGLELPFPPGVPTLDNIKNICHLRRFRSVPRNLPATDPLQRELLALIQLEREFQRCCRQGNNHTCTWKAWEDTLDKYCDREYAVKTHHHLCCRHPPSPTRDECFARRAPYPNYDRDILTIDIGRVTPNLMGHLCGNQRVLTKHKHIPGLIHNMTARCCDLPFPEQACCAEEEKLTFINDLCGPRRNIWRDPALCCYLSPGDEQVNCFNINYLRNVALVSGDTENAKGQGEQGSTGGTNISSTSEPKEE
UniProt P20702, residues 20-1163: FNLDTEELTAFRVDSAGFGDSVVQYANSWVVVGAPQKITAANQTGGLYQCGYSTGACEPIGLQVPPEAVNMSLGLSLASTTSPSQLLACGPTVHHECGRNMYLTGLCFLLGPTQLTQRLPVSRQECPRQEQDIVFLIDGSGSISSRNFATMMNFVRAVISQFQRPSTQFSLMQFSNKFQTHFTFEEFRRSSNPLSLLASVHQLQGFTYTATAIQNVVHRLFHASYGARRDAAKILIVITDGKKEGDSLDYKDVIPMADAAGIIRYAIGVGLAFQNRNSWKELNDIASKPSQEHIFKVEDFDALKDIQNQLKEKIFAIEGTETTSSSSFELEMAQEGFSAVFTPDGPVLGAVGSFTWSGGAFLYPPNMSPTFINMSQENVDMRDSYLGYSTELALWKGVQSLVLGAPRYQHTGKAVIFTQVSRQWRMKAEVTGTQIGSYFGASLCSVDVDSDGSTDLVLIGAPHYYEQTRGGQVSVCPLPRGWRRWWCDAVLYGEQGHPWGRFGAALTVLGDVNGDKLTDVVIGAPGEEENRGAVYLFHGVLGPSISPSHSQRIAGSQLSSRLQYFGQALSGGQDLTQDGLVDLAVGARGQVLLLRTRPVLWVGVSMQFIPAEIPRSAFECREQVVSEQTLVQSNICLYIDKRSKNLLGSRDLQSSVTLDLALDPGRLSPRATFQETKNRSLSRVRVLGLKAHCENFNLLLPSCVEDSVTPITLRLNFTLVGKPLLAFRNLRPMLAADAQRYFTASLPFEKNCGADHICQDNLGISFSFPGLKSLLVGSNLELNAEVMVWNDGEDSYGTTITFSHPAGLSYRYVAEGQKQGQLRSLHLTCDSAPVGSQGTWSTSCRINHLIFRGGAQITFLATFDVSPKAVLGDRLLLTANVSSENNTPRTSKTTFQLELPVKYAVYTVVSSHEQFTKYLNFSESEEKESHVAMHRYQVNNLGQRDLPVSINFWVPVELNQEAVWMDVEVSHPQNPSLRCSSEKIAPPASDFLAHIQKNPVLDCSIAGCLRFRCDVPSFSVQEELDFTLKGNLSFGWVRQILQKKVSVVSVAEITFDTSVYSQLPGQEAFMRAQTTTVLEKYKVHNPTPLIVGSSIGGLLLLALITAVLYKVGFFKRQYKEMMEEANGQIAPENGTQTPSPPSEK
UniProt P05107, residues 23-769: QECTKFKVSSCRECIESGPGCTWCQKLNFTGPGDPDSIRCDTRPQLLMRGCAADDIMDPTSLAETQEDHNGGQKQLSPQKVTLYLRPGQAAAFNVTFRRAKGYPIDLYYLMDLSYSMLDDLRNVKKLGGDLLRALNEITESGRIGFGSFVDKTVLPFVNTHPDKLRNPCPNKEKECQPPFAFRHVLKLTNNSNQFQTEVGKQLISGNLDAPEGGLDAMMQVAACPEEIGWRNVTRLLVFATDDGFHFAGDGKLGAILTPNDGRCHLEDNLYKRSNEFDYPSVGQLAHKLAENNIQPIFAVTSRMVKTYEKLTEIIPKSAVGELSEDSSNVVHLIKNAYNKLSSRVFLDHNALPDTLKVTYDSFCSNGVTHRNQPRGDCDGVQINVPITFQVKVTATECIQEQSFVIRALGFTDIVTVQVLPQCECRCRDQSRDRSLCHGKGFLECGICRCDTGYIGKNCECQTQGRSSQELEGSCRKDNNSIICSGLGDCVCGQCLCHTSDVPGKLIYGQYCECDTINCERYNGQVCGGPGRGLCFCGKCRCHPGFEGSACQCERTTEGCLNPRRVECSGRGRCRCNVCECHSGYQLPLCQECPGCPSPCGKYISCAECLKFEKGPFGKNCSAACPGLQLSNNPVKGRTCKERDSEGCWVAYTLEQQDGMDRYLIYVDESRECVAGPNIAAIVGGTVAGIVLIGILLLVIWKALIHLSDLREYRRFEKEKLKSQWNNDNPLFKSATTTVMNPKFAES

Key:
[1] = target: HA-tagged ECM1a mutant with VAQ instead of the GPR motif (human) (UniProt Q16610); assay: proximity ligation; Duolink In Situ Red kit on cells cultured on cover slides at 75% confluence; controls with mouse IgG or the control kit
[2] = target: HA-tagged ECM1a mutant with VAQ instead of the GPR motif (human) (UniProt Q16610); assay: co-IP; cell surface biotinylation (EZ-Link Sulfo-NHS-SS-Biotin, NeutrAvidin Agarose), isolated cell surface components precipitated with an HA antibody, WB for integrin αX or β2
[3] = target: HA-tagged ECM1a mutant with VAQ instead of the GPR motif (human) (UniProt Q16610); assay: co-IP; 0.5-1.0 mg whole-cell lysate of A8i cells expressing HA-ECM1a, HA-ECM1b or HA-ECM1a-MT in RIPA lysis buffer, 2 ug antibody or normal IgG, detection by WB

Measured: binding

integrin αX (from UniProt P20702 20-1163) (receptor)
no binding: [1] | [2] | [3]

integrin β2 (from UniProt P05107 23-769) (receptor)
no binding: [1] | [2] | [3]
